PubChem BioAssay AID1259308 | NCATS | 2017
Shown is a random part of about 59,000 reagents tested. About 1,510 of all reagents (2.6%) count as active. 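Calls use total luciferase alone and ignore viability, so some active siRNAs may act by altering cell number.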 A number with no mark means an inactive call. Reagents against one gene are numbered here. Further read-outs or replicates are left out here.

Test: 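Candidate targets for better recombinant protein yield in mammalian cells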 (primary screen)
System: human HEK293 embryonic kidney cells stably expressing firefly luciferase (HEK-CMV-Luc2-Hygro)
Knock-down reagent: single siRNA against human genes, 0.8 pmol siRNA per well
Duration: 72 h
Measured: 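Luciferase light (ONE-Glo) measured on one replicate plate set and viability (CellTiter-Glo) on the other, scaled to a negative control siRNA, with robust z-scores and luciferase per cell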
Scale: total luciferase, z-score: higher = more reporter protein produced
Hit rule: 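Active when the median/MAD z-score for overall luciferase is greater than 3; a gene was taken forward for validation with new siRNAs if at least two of its three siRNAs passed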
Calls: active = raised luciferase; inactive = no rise

target gene	siRNA no.	total luciferase, z-score
PLS3	1	-0.0772
PLS3	2	-0.716
PLS3	3	0.212
SLC25A19	1	-0.00269
SLC25A19	2	-0.141
SLC25A19	3	2.55
PLB1	1	-0.0195
PLB1	2	1.13
PLB1	3	-0.084
REG1A	1	-0.784
REG1A	2	1.82
REG1A	3	-1.57
A4GNT	1	-1.24
A4GNT	2	-0.748
A4GNT	3	-0.642
YAF2	1	-0.924
YAF2	2	-0.309
YAF2	3	3.59 (active)
SHPRH	1	-0.502
SHPRH	2	-0.975
SHPRH	3	-0.216
PGRMC1	1	0.198
PGRMC1	2	0.673
PGRMC1	3	0.0327
RALGPS1	1	-0.22
RALGPS1	2	-0.0302
RALGPS1	3	-0.756
CDK12	1	-1.08
CDK12	2	-2.09
CDK12	3	-1.51
LOC649201 (retired record)	1	1.36
LOC649201 (retired record)	2	-0.172
LOC649201 (retired record)	3	0.978
ZBTB14	1	2.24
ZBTB14	2	-0.0621
ZBTB14	3	0.158
ALDH3B2	1	-0.369
ALDH3B2	2	0.781
ALDH3B2	3	0.646
TMEM87B	1	0.64
TMEM87B	2	1.83
TMEM87B	3	-1.08

3 consecutive records already listed:
target gene	siRNA no.	total luciferase, z-score
LOC649201 (retired record)	1	1.36
LOC649201 (retired record)	2	-0.172
LOC649201 (retired record)	3	0.978

The list goes on:
target gene	siRNA no.	total luciferase, z-score
USF2	1	-1.65
USF2	2	-0.593
USF2	3	0.611
MTMR12	1	0.0592
MTMR12	2	0.44
MTMR12	3	0.212
CUBN	1	0.393
CUBN	2	-0.311
CUBN	3	1.8
DCAF13	1	-2.06
DCAF13	2	0.327
DCAF13	3	-2.02
GRAMD4	1	-1.2
GRAMD4	2	1.9
GRAMD4	3	0.072
HP	1	0.507
HP	2	-0.594
HP	3	-1.19
NRBF2	1	-0.32
NRBF2	2	0.893
NRBF2	3	1.9
KLHL35	1	-2.07
KLHL35	2	0.399
KLHL35	3	0.349
SERPINB5	1	-0.264
SERPINB5	2	0.103
SERPINB5	3	0.17
SLC9A9	1	-0.466
SLC9A9	2	1.13
SLC9A9	3	-0.561
CDH15	1	0.108
CDH15	2	-0.135
CDH15	3	-0.902
